PubChem BioAssay AID1259308, NCATS, 2017
Aim: 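Knock-downs that increase output of a recombinant reporter protein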 (primary screen). System: human HEK293 embryonic kidney cells stably expressing firefly luciferase (HEK-CMV-Luc2-Hygro). Knock-down reagent: single siRNA against human genes, 0.8 pmol siRNA per well. Time to read-out: 72 h. Measured: 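Luciferase light (ONE-Glo) measured on one replicate plate set and viability (CellTiter-Glo) on the other, scaled to a negative control siRNA, with robust z-scores and luciferase per cell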. Scale: total luciferase, z-score: higher = more reporter protein produced. Call rule: 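Active when the median/MAD z-score for overall luciferase is greater than 3; a gene was taken forward for validation with new siRNAs if at least two of its three siRNAs passed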. Calls: active = raised luciferase; inactive = no rise.
Here is an unselected part of about 59,000 reagents. About 1,510 of them (2.6%) count as active. 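Calls use total luciferase alone and ignore viability, so some active siRNAs may act by altering cell number.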 The numbers tell different reagents against one gene apart. Further read-outs or replicates are left out here. Reagent sequences are not shown.

total luciferase, z-score, by target gene and reagent
CH25H: #1 1.54 inactive; #2 0.341 inactive; #3 1.86 inactive
TMEM59L: #1 0.17 inactive; #2 -1.2 inactive; #3 0.928 inactive
LAS1L: #1 -2.31 inactive; #2 1.68 inactive; #3 0.493 inactive
EEF2: #1 -1.71 inactive; #2 -0.371 inactive; #3 -0.255 inactive
RBM17: #1 1.14 inactive; #2 0.0559 inactive; #3 -0.225 inactive
MTF1: #1 1.11 inactive; #2 2.48 inactive; #3 0.808 inactive
SEMA4C: #1 -0.0128 inactive; #2 1.86 inactive; #3 0.569 inactive
NAV3: #1 0.195 inactive; #2 -1.47 inactive; #3 0.763 inactive
HMX2: #1 0.308 inactive; #2 -1.22 inactive; #3 1.15 inactive
BTN3A1: #1 0.0781 inactive; #2 0.306 inactive; #3 -0.113 inactive
PPIL1: #1 1.33 inactive; #2 0.826 inactive; #3 0.284 inactive
FAM171A2: #1 -0.446 inactive; #2 0.447 inactive; #3 -2.02 inactive
MYL12A: #1 -0.801 inactive; #2 -0.704 inactive; #3 -0.94 inactive
MRGBP: #1 1.34 inactive; #2 0.57 inactive; #3 1.41 inactive
HS3ST3B1: #1 -1.02 inactive; #2 1.08 inactive; #3 0.71 inactive
GLTP: #1 -1.07 inactive; #2 0.274 inactive; #3 -0.265 inactive
TIMM21: #1 1.34 inactive; #2 -0.708 inactive; #3 -0.623 inactive
ZKSCAN4: #1 -0.09 inactive; #2 -0.404 inactive; #3 0.0647 inactive
HOXC11: #1 -0.394 inactive; #2 -0.698 inactive; #3 -0.53 inactive

4 entries from above, set out differently.
{"target gene": "BTN3A1", "reagent no.": 2, "total luciferase, z-score": 0.306, "Outcome": "inactive"}
{"target gene": "BTN3A1", "reagent no.": 3, "total luciferase, z-score": -0.113, "Outcome": "inactive"}
{"target gene": "PPIL1", "reagent no.": 1, "total luciferase, z-score": 1.33, "Outcome": "inactive"}
{"target gene": "PPIL1", "reagent no.": 2, "total luciferase, z-score": 0.826, "Outcome": "inactive"}
